From PubChem BioAssay AID2685 (National Center for Advancing Translational Sciences (NCATS), 2010)
Some of the results follow. Shown are side measurements of this screen, not its main read-out; they come without a call. Compounds called inactive in the main read-out are mostly missing here. The note in brackets gives the kind of curve behind each potency; many fits are weak.

Assay: qHTS Assay for Lipid Storage Modulators in Drosophila S3 Cells;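 on cell number change: cells counted by Cell Tracker Red CMTPX staining in the red channel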
Details: BODIPY lipid droplet fluorescence, 18-24 h; for cell number change: measured here: cell count max response, cells fed with added oleic acid
Outline: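 Laser-scanning cytometry quantifies lipid droplet accumulation (500–530 nm total intensity; droplet/cell object ratio) in oleic acid-fed (400 uM added) Drosophila S3 cells treated with a concentration series. 20 uM Triacsin C defined 100% inhibition.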

[1] = measured here: lipid fluorescence (Fed channel) AC50, cells fed with added oleic acid
[2] = measured here: cell number channel AC50, cells fed with added oleic acid

| SMILES | cell number change | AC50 [1] | AC50 [2] |
| --- | --- | --- | --- |
| COc1cccc(N2CCN(C(=O)c3cc4ccc(OC)cc4[nH]3)CC2)c1 | 2.59% | 0.082 µM [rising, full curve] | – |
| COc1ccc(F)cc1S(=O)(=O)NCC1CCCO1 (stereo not drawn) | 19.6% | – | – |
| CN1N=C(/C=C/c2ccccc2)CCC1=O | 0.271% | – | – |
| CC1=NN(/C(=N\c2nnc(C)s2)Nc2ccc(C(C)(C)C)cc2)[C@H](c2ccc(C)cc2)S1 | -23.8% | 23.1 µM [falling, single point] | – |
| O=C(O)CC1SC(N/N=C/c2ccc(Br)cc2)NC1=O (stereo not drawn) | -30.2% | 32.6 µM [falling, partial curve, poor fit] | 23.1 µM [falling, single point] |
| COc1ccc(CN2CCN(Cc3cc(=O)oc4cc(C)ccc34)CC2)c(OC)c1OC | 16.2% | – | – |
| O=C(CO/N=C/c1ccc2c(c1)OCO2)Nc1cccc(Br)c1 | 31.8% | 0.231 µM [rising, full curve] | 8.2 µM [rising, partial curve] |
| Cc1ccc(C)c(OCCC(=O)OCC(=O)NC2CC2)c1 | -23.5% | – | – |
| CNc1oc(-c2ccccc2Cl)nc1P(=O)(c1ccccc1)c1ccccc1 | -37.8% | 29.1 µM [falling, single point] | 29.1 µM [falling, single point] |
| CCOC(=O)C1CCCN(C(=O)c2ccc3nc(-c4ccccc4)c(-c4ccccc4)nc3c2)C1 (stereo not drawn) | -19.1% | 6.51 µM [falling, single point] | – |
| CCc1nc(-c2cc3ccc(C)cc3[nH]c2=O)no1 | 16.8% | 29.1 µM [rising, partial curve] | – |
| Cc1cc(NS(=O)(=O)c2ccc(NC(=O)COc3ccccc3[N+](=O)[O-])cc2)no1 | -13% | – | 7.31 µM [rising, single point] |
| CC1Cc2ccccc2N1S(=O)(=O)c1cccc(C(=O)c2nccn2C)c1 (stereo not drawn) | -5.97% | 2.06 µM [rising, partial curve] | – |
| COc1ccccc1CNC(=O)CCCc1cn(C)c2ccccc12 | – | – | 0.651 µM [rising, full curve, poor fit] |
| CCN(CC(=O)Nc1c(F)cccc1F)C(=O)Cn1[nH]c(=O)c2ccccc2c1=O | 23.4% | 20.6 µM [rising, single point] | – |
| Cc1ccc(-c2nc(C)sc2CC(=O)Nc2nnc(C)s2)cc1 | 37.1% | – | – |

A second format for some results above:
SMILES | cell number change | AC50 [1] | AC50 [2]
CN1N=C(/C=C/c2ccccc2)CCC1=O | 0.271% | – | –
CC1=NN(/C(=N\c2nnc(C)s2)Nc2ccc(C(C)(C)C)cc2)[C@H](c2ccc(C)cc2)S1 | -23.8% | 23.1 µM [falling, single point] | –

Continuation.

| SMILES | cell number change | AC50 [1] | AC50 [2] |
| --- | --- | --- | --- |
| Cc1cc(OCC(=O)NCc2cccnc2)ccc1[N+](=O)[O-] | 10.4% | – | – |
| Cc1ccc(S(=O)(=O)c2nnn3c2nc(Nc2cccc(C)c2)c2ccccc23)cc1 | 21.1% | 11.6 µM [rising, partial curve] | – |
| CN(C)C(CNC(=O)CNC(=O)c1ccc2ccccc2c1)c1ccccc1 (stereo not drawn) | -22.4% | – | – |
| O=C(N/C(=C\c1cccc(Br)c1)C(=O)N1CCCCC1)c1ccco1 | 25.8% | – | – |
| O=C(COC(=O)/C=C/c1cccc(C(F)(F)F)c1)NC(=O)NCc1ccccc1 | 30.1% | – | 32.6 µM [rising, single point] |
| COc1cc(C(=O)Oc2ccc3ccc(O)cc3c2)cc(OC)c1OC | -23.9% | 29.1 µM [falling, single point] | – |
| COc1cccc(COC(=O)CSCC(=O)Nc2cccc(C)c2)c1OC | 5.09% | 1.46 µM [rising, partial curve] | – |
| Cc1ccc(OCC(O)CNC(C)c2ccccc2)cc1C (stereo not drawn) | 49.6% | 29.1 µM [rising, single point] | 29.1 µM [rising, single point] |
| C=CCn1cc(C(=O)NCCN(CC)CC)c(=O)c2cc(S(=O)(=O)N3CCCCCC3)ccc21 | -7.63% | 3.26 µM [rising, single point] | – |
| CCOc1ccccc1N1CC(C(=O)Nc2ccc3c(c2)OCCO3)CC1=O (stereo not drawn) | -0.729% | – | – |
| Cc1c(C(C)C[C@H](C)O)oc(=O)c2c1Oc1c(C)c(C(C)C[C@H](C)O)oc(=O)c1C2 (stereo partly drawn) | -17.4% | 0.116 µM [falling, full curve, poor fit] | 0.164 µM [falling, full curve, poor fit] |
| CC(=O)c1ccc(CCCCCCCCCC(=O)O)s1 | -1.66% | – | – |
| Cc1ccc(C(=O)N2NC(c3ccc(F)cc3)C3C(=O)N(c4ccc(C)cc4)C(=O)C32)cc1 (stereo not drawn) | 30.5% | – | 29.1 µM [rising, single point] |
| S=c1[nH]nc(COc2ccccc2)n1/N=C/c1cccc(Cl)c1Cl | -6.94% | – | – |
| Cc1cc(C)c(S(=O)(=O)N2CCCCC2CCNC(=O)C(=O)NCc2cccnc2)c(C)c1 (stereo not drawn) | 133% | 0.00517 µM [falling, full curve, poor fit] | 18.4 µM [rising, single point] |
| Cc1ccc(CNC(=O)CCS(=O)(=O)c2cc(Br)cc3c2N(C(=O)C2CC2)CC3)o1 | -27.3% | 3.66 µM [falling, partial curve] | – |
